# The supplement of paper PMC7125110
# ± gives the standard error. Many entries were measured with a wide error.
# B1: glmS ribozyme (parent)
# chain: AUAAAAGCGCCAGAACUACAGAAAUGUAGUUGACGAGGAGGAGGUUUAUCGAAUUUUCGGCGGAUGCCUCCAAA
# Variants of: B1
# Experiment: KM; higher = weaker cofactor use; RNA array
# Conditions: with glucosamine-6-phosphate
# Method in brief: (§1)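 Glucosamine-6-phosphate in HEPES/KCl/Mg(OAc)2 buffer, at 40 μM to 10 mM, was flowed over barcoded ribozyme variants transcribed in situ by E. coli RNA polymerase on sequenced MiSeq chips. Tracking was through a hybridised Cy3 probe at 37 °C. kobs, kcat and KM came from exponential decay fits and weighted Michaelis–Menten fits of normalised per-tile medians.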
row,Variant,KM [µM]
1,U30A C58A,3870 ± 2900
2,U30A C70G,79.2 ± 67
3,U30A C71A,603 ± 230
4,U30A G32A,3950 ± 2400
5,U30A G40A,5310 ± 3700
6,U30A U31C,4300 ± 500
7,U30A U45A C50U,1120 ± 750
8,U30A U47C C70G,970 ± 700
9,U30A U55A,1850 ± 740
10,U30C A53U,1290 ± 540
11,U30C C67A,268 ± 170
12,U30C C70U,1890 ± 790
13,U30C G37C C70U,26 ± 26
14,U30C G40A,3260 ± 1400
15,U30C G62U,50.7 ± 42
16,U30C U69C,591 ± 210
17,U30G A64C,4950 ± 1100
18,U30G C58U,2000 ± 1100
19,U30G C67A,1110 ± 570
20,U30G U31G,913 ± 520
21,U31A C50G U65C C67U,20.3 ± 19
22,U31A C67U,995 ± 530
23,U31A G41C,501 ± 200
24,U31A G44U,3960 ± 530
25,U31C A52U,1560 ± 1100

row,Variant,KM [µM]
1,U31C A53G,1960 ± 740
2,U31C C70U,249 ± 130
3,U31C C71A,1470 ± 630
4,U31C U46G,2730 ± 1900
5,U31G A33U,4090 ± 910
6,U31G C71U,3220 ± 1900
7,U31G G44U,8740 ± 3600
8,U31G G59A,21400 ± 2000
9,G32A A39C,3190 ± 1300
10,G32A A53C,5930 ± 3600
11,G32A A53U,2160 ± 1400
12,G32A G37A,25600 ± 7300
13,G32A G44A,42100 ± 13000
14,G32A U56A,5360 ± 1600
15,G32C U47C G62C C71U,134 ± 92
16,G32U C67G,1520 ± 570
17,G32U U46G,9000 ± 5400
18,G32U U49G,1040 ± 820
19,A33C A42G,5240 ± 1500
20,A33G C58G,198 ± 140
21,A33G G62U,64.9 ± 52
22,A33G U49C U57A,585 ± 340
23,A33U,2770 ± 160
24,A33U A39G,4730 ± 3100
25,A33U C68U,769 ± 470

row,Variant,KM [µM]
1,A33U U54A C68A,67.6 ± 46
2,A33U U54G,3070 ± 2200
3,C34A U56G,31 ± 12
4,C34U C61A,18.6 ± 18
5,C34U G60A,18.1 ± 15
6,G35C C50G,3630 ± 2100
7,G35C G37C,8.1 ± 7
8,G35C U56A G59A,1090 ± 730
9,G35U U54G U56A,210 ± 130
10,A36C C68U,56.7 ± 56
11,A36C C71A,41 ± 31
12,A36C G63C,77.8 ± 46
13,A36C U49G,2830 ± 1600
14,A36G,1080 ± 880
15,A36U A48C,326 ± 200
16,G37A G41A,4150 ± 2300
17,G37A G44U,2110 ± 1300
18,G37A G66C,2250 ± 630
19,G37A U54G,2900 ± 1600
20,G37U U49A,312 ± 290
21,G37U U65G,1260 ± 500
22,G38A G59C,37.4 ± 31
23,G38A U49A C58U,862 ± 380
24,G38U A39G,2660 ± 1000
25,G38U G40A,47.6 ± 44

row,Variant,KM [µM]
1,G38U U65G,107 ± 46
2,A39C C58U,740 ± 730
3,A39C G43U,787 ± 540
4,A39C U45C,3080 ± 440
5,A39C U46C,2740 ± 280
6,A39G C70U C71U,103 ± 60
7,A39G U55C,3000 ± 920
8,A39G U65A,2070 ± 1200
9,A39U A48G,2340 ± 1400
10,A39U G59A,1080 ± 620
11,A39U U45C,6420 ± 3600
12,A39U U54C,3700 ± 1900
13,A39U U55A,5710 ± 1200
14,A39U U69G,441 ± 320
15,G40A A42G,1900 ± 820
16,G40A G41A U55G,578 ± 220
17,G40C A42U,411 ± 300
18,G40C A52G,2990 ± 1200
19,G40C A64G,2650 ± 1700
20,G40C U69C,1610 ± 1400
21,G40U A42U,812 ± 440
22,G40U U46C U47G,1390 ± 1100
23,G40U U49G C71G,1730 ± 1600
24,G40U U55A,2130 ± 1500
25,G41A A42G,915 ± 530

# 2 entries from above, reformatted.
row | Variant | KM [µM]
21 | G40U A42U | 812 ± 440
22 | G40U U46C U47G | 1390 ± 1100

# Given with bars between the fields: entries from further up.
row | Variant | KM [µM]
1 | G38U U65G | 107 ± 46
2 | A39C C58U | 740 ± 730

# Continued.

row,Variant,KM [µM]
1,G41A A52G,1080 ± 780
2,G41A U45C,303 ± 140
3,G41A U46A,1480 ± 630
4,G41C C58U,79.8 ± 45
5,G41U A42U,1210 ± 800
6,G41U C70A,412 ± 220
7,G41U C70G,212 ± 150
8,G41U U49G,1400 ± 1100
9,G41U U54A,133 ± 100
10,G41U U55G,271 ± 140
11,A42C U69C,640 ± 410
12,A42G A48G,13600 ± 2200
13,A42G A53C,1540 ± 610
14,A42G A64G,1370 ± 520
15,A42G C70A,185 ± 140
16,A42G U46G,4310 ± 2700
17,A42G U47A,490 ± 290
18,A42G U47G,1360 ± 750
19,A42G U57A,875 ± 480
20,A42G U69G,112 ± 63
21,A42U A53U,1280 ± 640
22,A42U C71A,8200 ± 6200
23,G43A C68U,209 ± 120
24,G43A U56G,3400 ± 58
25,G43A U69A,101 ± 53

# Part of the list above, bar-delimited.
row | Variant | KM [µM]
24 | U31A G44U | 3960 ± 530
25 | U31C A52U | 1560 ± 1100

# (list continues)

row,Variant,KM [µM]
1,G43C A53G C68U,1790 ± 1100
2,G43U U65A,5670 ± 730
3,G44A G66A,1440 ± 840
4,G44A U54C,8260 ± 990
5,G44A U56G,1460 ± 780
6,U45A C58G,4010 ± 2100
7,U45A C67U,2930 ± 1500
8,U45A C70A,1480 ± 1200
9,U45A G59U,20700 ± 10000
10,U45A G66U,2090 ± 330
11,U45A U47A,745 ± 370
12,U45A U69C,53.9 ± 45
13,U45C U65A C67G,1660 ± 630
14,U45G C70A,827 ± 480
15,U46C A52U,20200 ± 9900
16,U46C C71U,1240 ± 290
17,U46C U49G,817 ± 220
18,U46C U57C,3690 ± 1900
19,U46G C68G,678 ± 110
20,U46G C71G,779 ± 560
21,U46G U49G,982 ± 610
22,U46G U54G,3110 ± 510
23,U46G U69G,16.4 ± 13
24,U47A C70G,103 ± 57
25,U47C C67U,825 ± 530

# Variants of: B1
# Experiment: self-cleavage kobs at 160 uM GlcN6P; higher = faster cleavage; RNA array
# Conditions: with glucosamine-6-phosphate
# Method in brief: as §1
row,Variant,self-cleavage kobs at 160 uM GlcN6P [s⁻¹]
1,U30C A53U,2.48e-05 ± 1.3e-05
2,U31C U46G,1.96e-05 ± 1.2e-05
3,A33C A42G,1.85e-05 ± 1.8e-05
4,A39C U45C,2.29e-05 ± 1.5e-05
5,G41A A42G,2.97e-05 ± 1.7e-05
6,U45A C58G,3.87e-05 ± 3e-05

# Variants of: B1
# Experiment: self-cleavage kobs at 40 uM GlcN6P; higher = faster cleavage; RNA array
# Conditions: with glucosamine-6-phosphate
# Method in brief: as §1
row,Variant,self-cleavage kobs at 40 uM GlcN6P [s⁻¹]
1,U30C C70U,1.2e-05 ± 9.4e-06
2,A39U U45C,2.22e-05 ± 1.4e-05
3,G40C A64G,2.41e-05 ± 1.6e-05
4,A42C U69C,1.81e-05 ± 1.5e-05
5,G44A G66A,4.12e-05 ± 2.5e-05
6,U47A C70G,2.77e-05 ± 1.6e-05

# Variants of: B1
# Experiment: self-cleavage kobs at 2500 uM GlcN6P; higher = faster cleavage; RNA array
# Conditions: with glucosamine-6-phosphate
# Method in brief: as §1
row,Variant,self-cleavage kobs at 2500 uM GlcN6P [s⁻¹]
1,U30G A64C,1.86e-05 ± 1.5e-05
2,U30G C58U,3.61e-05 ± 2.3e-05
3,U30G U31G,0.0457 ± 0.025
4,U31G G59A,1.37e-05 ± 1.1e-05
5,A33U C68U,1.51e-05 ± 1.5e-05
6,A33U U54A C68A,2.88e-05 ± 2.8e-05
7,A39G U55C,0.0598 ± 0.047
8,A39U G59A,1.77e-05 ± 1.3e-05
9,G41U U49G,3.23e-05 ± 2.1e-05
10,A42G U69G,0.000235 ± 0.00013
11,G43A U56G,2.04e-05 ± 1.3e-05
12,U45C U65A C67G,0.00146 ± 0.00098
13,U47A C70G,0.00234 ± 0.0016

# Variants of: B1
# Experiment: self-cleavage kobs at 640 uM GlcN6P; higher = faster cleavage; RNA array
# Conditions: with glucosamine-6-phosphate
# Method in brief: as §1
row,Variant,self-cleavage kobs at 640 uM GlcN6P [s⁻¹]
1,U31A G44U,2.68e-05 ± 1.6e-05
2,U31G G44U,2.71e-05 ± 1.7e-05
3,A39U A48G,1.37e-05 ± 1.2e-05
4,G40C A42U,2.11e-05 ± 1.7e-05
5,G41A A52G,1.94e-05 ± 1.4e-05
6,A42U A53U,2.24e-05 ± 1.5e-05
7,A42U C71A,2.7e-05 ± 1.5e-05
8,U45A C58G,3.61e-05 ± 1.9e-05
9,U46G U49G,2.49e-05 ± 1.9e-05

# Variants of: B1
# Experiment: self-cleavage kobs at 10000 uM GlcN6P; higher = faster cleavage; RNA array
# Conditions: with glucosamine-6-phosphate
# Method in brief: as §1
row,Variant,self-cleavage kobs at 10000 uM GlcN6P [s⁻¹]
1,A33U C68U,1.58e-05 ± 9.7e-06
2,A39U G59A,1.99e-05 ± 1e-05
3,G40U U46C U47G,2.44e-05 ± 1.9e-05
4,U45A U47A,0.0727 ± 0.054
